The results in this text go back to patent US20170298121A1 (GlaxoSmithKline, published 2017).

Sequences of proteins named here, by UniProt entry; tags and fusion partners are left off. Residues count along the entry.
UniProt P07724, residues 25-608: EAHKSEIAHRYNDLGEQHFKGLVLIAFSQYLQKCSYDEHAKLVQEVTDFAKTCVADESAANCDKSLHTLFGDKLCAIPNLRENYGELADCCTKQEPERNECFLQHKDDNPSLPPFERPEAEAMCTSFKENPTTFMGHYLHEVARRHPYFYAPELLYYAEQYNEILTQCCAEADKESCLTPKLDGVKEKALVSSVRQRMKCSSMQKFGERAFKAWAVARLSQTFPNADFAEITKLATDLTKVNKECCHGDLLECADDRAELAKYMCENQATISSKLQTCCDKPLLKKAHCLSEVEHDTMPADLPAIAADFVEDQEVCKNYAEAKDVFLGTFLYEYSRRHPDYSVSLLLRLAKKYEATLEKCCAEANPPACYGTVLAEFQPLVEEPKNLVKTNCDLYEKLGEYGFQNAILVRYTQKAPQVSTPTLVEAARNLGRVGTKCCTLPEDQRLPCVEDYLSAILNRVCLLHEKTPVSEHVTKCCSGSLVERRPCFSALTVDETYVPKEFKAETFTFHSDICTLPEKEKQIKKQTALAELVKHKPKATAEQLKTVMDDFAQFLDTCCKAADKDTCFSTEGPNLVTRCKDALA
UniProt P02770, residues 25-608: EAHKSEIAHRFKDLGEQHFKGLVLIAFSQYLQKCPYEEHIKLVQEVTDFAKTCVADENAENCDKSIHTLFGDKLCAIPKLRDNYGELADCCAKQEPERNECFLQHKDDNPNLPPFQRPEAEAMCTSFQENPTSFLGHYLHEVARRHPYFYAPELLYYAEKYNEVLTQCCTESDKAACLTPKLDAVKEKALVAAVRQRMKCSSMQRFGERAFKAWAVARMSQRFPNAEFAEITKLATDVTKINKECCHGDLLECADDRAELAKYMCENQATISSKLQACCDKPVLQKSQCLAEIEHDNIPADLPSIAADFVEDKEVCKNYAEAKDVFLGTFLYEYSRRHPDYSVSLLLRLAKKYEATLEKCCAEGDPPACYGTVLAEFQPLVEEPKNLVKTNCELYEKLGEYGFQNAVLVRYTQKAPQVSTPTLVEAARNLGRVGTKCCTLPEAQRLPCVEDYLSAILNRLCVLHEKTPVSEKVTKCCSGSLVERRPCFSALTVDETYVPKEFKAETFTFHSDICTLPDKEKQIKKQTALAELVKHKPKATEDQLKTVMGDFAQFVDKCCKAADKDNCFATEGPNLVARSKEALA

The target of assay [1] is mouse serum albumin (mouse) (UniProt P07724). Put plainly: SPR (BiaCore), purified dAb at 1 µM, 500 nM, 50 nM.
In a further assay the target is Rat Serum Albumin (rat) (UniProt P02770). Put plainly: SPR (BiaCore), purified dAb at 1 µM, 500 nM, 50 nM. A general note: Surface plasmon resonance follows binding to a sensor surface in real time, without labels.

These are yes or no findings as the source states them, for the method shown. Some results given as binding are weak or reduced against the parent protein; the word gives no strength.

B1: DOM7h-11-3 (protein)
VL: DIQMTQSPSSLSASVGDRVTITCRASRPIGTTLSWYQQKPGKAPKLLILWNSRLQSGVPSRFSGSGSGTDFTLTISSLQPEDFATYYCAQAGTHPTTFGQGTKVEIKR
For B1, the binding entry (in assay [1]; with Rat Serum Albumin (rat)) was “binds” in each case.
